According to PubChem BioAssay (EPA / NIEHS):
The shares of active, inactive and inconclusive entries below differ from those in the screen. Potencies beside an inconclusive call are fits to weak or partial responses and may not hold up. Activity calls are given as the source filed them. How the source made its calls: active means hit-call score of the fitted dose curve at least 0.9, where 1 is the maximum; inconclusive means response in the unintended direction; inactive means score below 0.9.

By UniProt entry, the sequences of proteins in these tests, tags left out.
UniProt P33261, whole entry, looked up: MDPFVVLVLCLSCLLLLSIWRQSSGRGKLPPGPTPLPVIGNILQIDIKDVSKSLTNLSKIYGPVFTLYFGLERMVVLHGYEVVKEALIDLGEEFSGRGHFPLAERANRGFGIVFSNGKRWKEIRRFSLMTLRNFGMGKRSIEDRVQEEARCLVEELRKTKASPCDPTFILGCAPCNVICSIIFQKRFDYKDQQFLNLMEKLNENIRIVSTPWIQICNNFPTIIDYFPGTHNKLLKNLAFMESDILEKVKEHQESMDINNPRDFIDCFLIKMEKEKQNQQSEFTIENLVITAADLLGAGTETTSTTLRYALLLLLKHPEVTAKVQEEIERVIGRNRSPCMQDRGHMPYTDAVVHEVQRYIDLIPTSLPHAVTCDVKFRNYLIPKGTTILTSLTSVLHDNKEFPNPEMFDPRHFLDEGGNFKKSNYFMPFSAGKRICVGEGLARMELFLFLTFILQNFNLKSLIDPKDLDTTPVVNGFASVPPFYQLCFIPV

read-out: Cytochrome P450 2C19 (Homo sapiens) (UniProt P33261); assay: CLD_CYP2C19_6hr: CellzDirect (CLD) Gene Expression Assay for xenobiotic metabolism (CYP2C19) at 6 hours (AID 2283678)
Experimental: CLD_6hr is a cell-based, multiplexed-readout assay that uses hepatocyte, a human liver primary cell, with measurements taken at 6 hours after chemical dosing in a 96-well plate.CLD_CYP2C19_6hr is one of 16 assay component(s) measured or calculated from the CLD_6hr assay. It is designed to make measurements of mRNA induction, a form of inducible reporter, as detected with chemiluminescence signals by Quantitative Nuclease Protection Assay (qNPA) technology.Data from the assay component CLD_CYP2C19_6hr was analyzed at the endpoint, CLD_CYP2C19_6hr, in the positive analysis fitting direction relative to DMSO as the negative control and baseline of activity. Using a type of inducible reporter, gain-of-signal activity can be used to understand changes in the reporter gene as they relate to the gene CYP2C19. Furthermore, this assay endpoint can be referred to as a primary readout. To generalize the intended target to other relatable targets, this assay endpoint is annotated to the cyp intended target family, where subfamily is xenobiotic metabolism.
Human hepatocyte cultures were treated daily for two consecutive days with fresh dosing solutions containing appropriate concentrations of the 320 ToxCast chemicals (chemical identities were blinded to CellzDirect and other ToxCast collaborators), vehicle control (0.2% DMSO), and positive control inducers as summarized in Table 1. Due to the large number of treatment groups and chemicals examined, the ToxCast chemicals were divided into two groups (spanning two independent cultures of hepatocytes from separate donor preparations (Hu778: ToxCast plates 1 and 2; Hu776: ToxCast plates 3 and 4). Each preparation of human hepatocyte cultures was treated with respective vehicle control, medium only control, set of six positive controls/reference chemicals for the five hepatic receptor pathways, and a subset of eight of the ToxCast chemicals (indoxacarb, pyrithiobac-sodium, norflurazon, cyhalofop-butyl, methomyl, thiram, acetochlor, and propiconazole). These replicate data, coupled with internal replicates designed within the blinded ToxCast chemical library, provided additional data to evaluate interindividual differences between hepatocyte preparations and their potential impact on chemical profiles.Cell morphology and integrity were evaluated using phase-contrast microscopy as an indicator of hepatocyte cell health (Tyson & Green, 1987). Cultures for each treatment group (i.e., media, vehicle [0.2% DMSO], positive control inducers [multiple concentrations], and the ToxCast chemicals [multiple concentrations]) were observed and cell morphology was assessed relative to vehicle control cultures at each harvest time point (0, 6, 24, or 48 h). […] Images were evaluated at the conclusion of the study to assess changes in cell integrity and account for the effects of chemical exposure on uncharacteristic changes in concentration-dependent gene expression profiles. The results from these determinations of apparent cytotoxicity were annotated (yes/no) alongside the corresponding qNPA data for reference.At the conclusion of each treatment period, hepatocyte cultures (96-well) were washed with 1 volume of HBSS, lysed by addition of 25 ul ArrayPlate lysis buffer (HTG, Tucson, AZ), and 70 ul/well of Denaturation Oil, denatured by incubation at 95C for 10 min, and frozen at approximately -70C until analysis by nuclease protection assay (qNPA) (Roberts et al., 2007). For qNPA analysis, cell lysates were thawed at 50C for approximately 30 min, qNPA probes were added, and samples were incubated at 95C for 10 min to begin the detection process by denaturing the target RNA, dissociating the duplexes and secondary structure hybridization. At the conclusion of the hybridization period, S1 nuclease reagent was added to each sample to digest all nonprotected nucleotides at 50C for 60-90 min. […]

**Q.** With `CC[C@H](C)[C@H]1O[C@]2(C=C[C@@H]1C)C[C@@H]1C[C@@H](C/C=C(\C)[C@@H](O[C@H]3C[C@H](OC)[C@@H](O[C@H]4C[C@H](OC)[C@@H](O)[C@H](C)O4)[C@H](C)O3)[C@@H](C)/C=C/C=C3\CO[C@@H]4[C@H](O)C(C)=C[C@@H](C(=O)O1)[C@]34O)O2` (tested in a mixture with another compound) as the compound, how does the AC50 read?
**A.** The AC50 was inconclusive: 20 µM.

**Q.** Which AC50 does the source give for `CC(C)OC(=O)Nc1cccc(Cl)c1` here?
**A.** Its AC50 is inconclusive: 20 µM.

**Q.** Which AC50 does the source give for `C#CCOS(=O)OC1CCCCC1Oc1ccc(C(C)(C)C)cc1` (stereo not given) here?
**A.** The AC50 was inconclusive: 20 µM.

**Q.** With `CC(C)(C)C(=O)C(Oc1ccc(Cl)cc1)n1cncn1` (stereo not given) as the compound, how does the outcome read?
**A.** The outcome was “inactive”.

**Q.** How did the outcome turn out when `O=C1c2ccccc2C(=O)N1SC(Cl)(Cl)Cl` was run?
**A.** Its outcome is “inactive”.

**Q.** With `CCC(CC)Nc1c([N+](=O)[O-])cc(C)c(C)c1[N+](=O)[O-]` as the compound, how does the AC50 read?
**A.** Its AC50 is inconclusive: 20 µM.

**Q.** With `Cc1ccn2nc(S(=O)(=O)Nc3c(F)cccc3F)nc2n1` as the compound, how does the AC50 read?
**A.** The AC50 was inconclusive: 20 µM.

**Q.** How did the AC50 turn out when `C[C@H]1[C@H](c2ccc(Cl)cc2)SC(=O)N1C(=O)NC1CCCCC1` was run?
**A.** The AC50 was inconclusive: 20 µM.

**Q.** `COC(=O)C(C)Oc1ccc(Oc2ccc(Cl)cc2Cl)cc1` (stereo not given) was tested. Which outcome did it give?
**A.** Its outcome is “inactive”.

**Q.** Which AC50 does the source give for `C=CCC1=C(C)C(OC(=O)C2C(C=C(C)C)C2(C)C)CC1=O` (stereo not given) here?
**A.** The AC50 was inconclusive: 20 µM.

**Q.** `COP(N)(=O)SC` (stereo not given) was tested. Which outcome did it give?
**A.** The outcome was “inactive”.

**Q.** How did the outcome turn out when `COC(=O)c1ccccc1C(=O)OC` was run?
**A.** Its outcome is “inactive”.

**Q.** With `CC(C)(C)C(O)/C(=C\c1ccc(Cl)cc1Cl)n1cncn1` (stereo not given) as the compound, how does the AC50 read?
**A.** Its AC50 is inconclusive: 3.97 µM.

**Q.** For `COP(=S)(OC)SCn1nnc2ccccc2c1=O`, which AC50 is on record?
**A.** The AC50 was inconclusive: 3.61 µM.

**Q.** With `CO/N=C(/C1=NOCCO1)c1ccccc1Oc1ncnc(Oc2ccccc2Cl)c1F` as the compound, how does the AC50 read?
**A.** Its AC50 is inconclusive: 20 µM.

**Q.** With `COP(=O)(OC)SCn1c(=O)oc2cc(Cl)cnc21` as the compound, how does the AC50 read?
**A.** Its AC50 is inconclusive: 20 µM.

**Q.** How did the outcome turn out when `CCOC(=O)C(C)OC(=O)c1cc(Oc2ccc(C(F)(F)F)cc2Cl)ccc1[N+](=O)[O-]` (stereo not given) was run?
**A.** The outcome was “inactive”.

**Q.** With `COc1cc(OC)nc(NC(=O)NS(=O)(=O)c2ncccc2OCC(F)(F)F)n1` as the compound, how does the outcome read?
**A.** Its outcome is “inactive”.

**Q.** `COC(=O)C=C(C)OP(=O)(OC)OC` was tested. Which AC50 did it give?
**A.** Its AC50 is inconclusive: 20 µM.

**Q.** `CS(=O)(=O)c1cc(C(F)(F)F)ccc1C(=O)c1cnoc1C1CC1` was tested. Which outcome did it give?
**A.** Its outcome is “inactive”.

**Q.** Which AC50 does the source give for `CCN(CC)C(=O)C(C)Oc1cccc2ccccc12` (stereo not given) here?
**A.** The AC50 was inconclusive: 37 µM.

**Q.** Which AC50 does the source give for `CCCSP(=O)(OCC)SCCC` here?
**A.** Its AC50 is inconclusive: 20 µM.

**Q.** How did the AC50 turn out when `N#CC(CCc1ccc(Cl)cc1)(Cn1cncn1)c1ccccc1` (stereo not given) was run?
**A.** Its AC50 is inconclusive: 20 µM.

**Q.** What does the source list for `COc1nc(C)nc(NC(=O)NS(=O)(=O)c2ccccc2Cl)n1`?
**A.** AC50: inconclusive: 20 µM; outcome: inactive

**Q.** Which AC50 does the source give for `CCSC(=O)N1CCCCCC1` here?
**A.** The AC50 was inconclusive: 3.66 µM.

**Q.** Which AC50 does the source give for `Oc1ccccc1-c1ccccc1` here?
**A.** Its AC50 is inconclusive: 20 µM.

**Q.** How did the AC50 turn out when `CCCN(CCC)c1c([N+](=O)[O-])cc(S(N)(=O)=O)cc1[N+](=O)[O-]` was run?
**A.** The AC50 was inconclusive: 20 µM.

**Q.** Which AC50 does the source give for `CCN(CC)c1nc(C)cc(OP(=S)(OC)OC)n1` here?
**A.** The AC50 was inconclusive: 20 µM.

**Q.** With `CNC(=O)Oc1ccccc1OC(C)C` as the compound, how does the outcome read?
**A.** Its outcome is “inactive”.

**Q.** With `CC1(C)C(C=C(Cl)Cl)C1C(=O)OC(C#N)c1cccc(Oc2ccccc2)c1` (stereo not given) as the compound, how does the AC50 read?
**A.** The AC50 was inconclusive: 20 µM.

**Q.** For `CCNP(=S)(OC)O/C(C)=C/C(=O)OC(C)C` (stereo not given), which AC50 is on record?
**A.** Its AC50 is inconclusive: 20 µM.

**Q.** How did the AC50 turn out when `C=CCOC(=O)C(C)(C)OC(=O)c1cc(-n2c(=O)cc(C(F)(F)F)n(C)c2=O)ccc1Cl` was run?
**A.** The AC50 was inconclusive: 20 µM.

**Q.** `CC(C)Oc1cc(-n2nc(C(C)(C)C)oc2=O)c(Cl)cc1Cl` was tested. Which AC50 did it give?
**A.** Its AC50 is inconclusive: 3.97 µM.

**Q.** With `C=C(C)CN(CC)c1c([N+](=O)[O-])cc(C(F)(F)F)cc1[N+](=O)[O-]` as the compound, how does the outcome read?
**A.** Its outcome is “inactive”.

**Q.** With `CNC(=O)Oc1cccc(N=CN(C)C)c1` as the compound, how does the outcome read?
**A.** Its outcome is “inactive”.

**Q.** For `CO/C=C(/C(=O)OC)c1ccccc1Oc1cc(Oc2ccccc2C#N)ncn1`, which AC50 is on record?
**A.** Its AC50 is inconclusive: 32.9 µM.

**Q.** `CCC(C)(CC)c1cc(NC(=O)c2c(OC)cccc2OC)on1` was tested. Which AC50 did it give?
**A.** The AC50 was inconclusive: 20 µM.

**Q.** `N#Cc1nn(-c2c(Cl)cc(C(F)(F)F)cc2Cl)c(N)c1S(=O)C(F)(F)F` (stereo not given) was tested. Which AC50 did it give?
**A.** Its AC50 is inconclusive: 3.97 µM.

**Q.** Which AC50 does the source give for `CN(C)c1nc(=O)n(C2CCCCC2)c(=O)n1C` here?
**A.** Its AC50 is inconclusive: 0.00102 µM.
